# For at least one compound, name, drawing or mass did not settle the structure.
# By UniProt entry, the sequences of proteins in these tests, tags left out. Where a name states a change or a piece, a line headed by the entry shows the natural chain unless it says otherwise.
# UniProt A9JQL9: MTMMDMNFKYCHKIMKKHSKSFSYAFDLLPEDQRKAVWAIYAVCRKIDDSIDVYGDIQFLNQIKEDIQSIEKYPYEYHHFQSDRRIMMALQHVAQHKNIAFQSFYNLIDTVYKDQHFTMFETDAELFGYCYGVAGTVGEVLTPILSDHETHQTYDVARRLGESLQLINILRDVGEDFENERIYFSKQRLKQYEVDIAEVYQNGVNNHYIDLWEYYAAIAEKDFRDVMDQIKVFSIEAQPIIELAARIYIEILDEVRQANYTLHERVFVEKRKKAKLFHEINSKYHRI
# Assays:
# [1] = target: S. aureus CrtM (dehydrosqualene synthase) (Staphylococcus aureus, UniProt A9JQL9); assay: CrtM enzyme inhibition assay; settings: fold, versus 2
# [2] = target: T1, human squalene synthase (hSQS) (Homo sapiens, UniProt P37268); assay: Human SQS enzyme inhibition assay; assay type: biochemical; settings: experimental data
# T1 construct: a double truncated protein lacking residues 31 at the N-terminus and 46 at the C-terminus; six-histidine tag (pET-28a) (N); made in house; host or cells: E. coli BL21 (DE3) RP
# T1 sequence (P37268 31-370 limits assumed): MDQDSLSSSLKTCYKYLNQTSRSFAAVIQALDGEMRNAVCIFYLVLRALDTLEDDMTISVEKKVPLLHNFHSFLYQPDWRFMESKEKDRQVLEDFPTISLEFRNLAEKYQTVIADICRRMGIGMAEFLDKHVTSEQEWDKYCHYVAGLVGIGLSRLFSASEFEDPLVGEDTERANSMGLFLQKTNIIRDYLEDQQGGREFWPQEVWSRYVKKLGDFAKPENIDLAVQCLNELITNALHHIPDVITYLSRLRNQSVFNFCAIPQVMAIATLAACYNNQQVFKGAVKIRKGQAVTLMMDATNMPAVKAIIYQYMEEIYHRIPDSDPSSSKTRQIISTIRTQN
# Method: The corresponding amplified insert was initially cloned in the vector pGEMT® (Promega). Plasmid was digested with the endonucleases NdeI and BamHI, and the resulting fragment was cloned into the bacterial expression vector pET-28a to give pET28a-HsSQS which was used to transform E. coli BL21 (DE3) RP strain (Novagen) for overexpression.
# Bacteria expressing the constructs were cultured in Luria-Bertani medium supplemented with kanamycin (30 μg/ml) and chloramphenicol (34 μg/ml) at 37° C., until the cells reached an OD of 0.4 at 600 nm, and were then induced at 37° C. for 4 h by incubation with 1 mM isopropyl-1-thio-β-D-galactopyranoside. […]
# SQS activity was based on measuring the conversion of [3H]FPP to [3H]squalene. […] The region of the squalene band was scraped and immersed in Hydrofluor liquid scintillation fluid, and assayed for radioactivity. IC50 values were calculated from the hyperbolic plot of percent of inhibition versus inhibitor concentration, using GraphPad PRISM®.
compound,measurement,setting,value
CP(=O)([O-])C(CCCc1ccc(-c2ccccc2)cc1)P(=O)([O-])[O-].[K+].[K+].[K+] (centres unmarked) [Compound 4],less active than 2 in CrtM inhibition,[1],~10 ×
same,pIC50 (CrtM) − pIC50 (hSQS),[2],−1.87

# Source: patent publication US20120022024A1, “ANTI-BACTERIAL COMPOSITIONS AND METHODS INCLUDING TARGETING VIRULENCE FACTORS OF STAPHYLOCOCCUS AUREUS” (priority 2009, published 2012)
